Library screening results

The values are deposited in ChEMBL (CHEMBL3988442, “University of Dundee, Small-Polar-MMV Screening Library” (2021)).

Mtb heat-shock: 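Assay on Mycobacterium tuberculosis, filed only as a heat shock assay from Cornell; the read-out is not stated. The concentration is filed as 10 mM, unlikely as a test dose, so the dose is not known. Higher reads as stronger inhibition (inferred: compounds with an IC50 in retests scored well above the rest). About 69,000 compounds were tested under these conditions; 1.4% (about 930) showed 50% or more at least once.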
Mtb growth Cornell: 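Whole-cell assay for inhibitors of Mycobacterium tuberculosis growth, labelled Cornell in the record; the read-out is not stated. The concentration is filed as 10 mM, unlikely as a test dose, so the dose is not known. The record gives no direction; compounds strong in two other growth screens of this library score well above the rest, so higher reads as stronger inhibition. About 53,000 compounds were tested under these conditions; 1.7% (about 900) showed 50% or more at least once.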

Values are the deposited “Percent Effect”, in %. The record does not define 0% and 100%; most values in the screen are far below 50% and negative numbers occur (in some assays of this library far below -100). Compounds were drawn at random from those tested, without regard to their results. A dash means the value is not listed here; it may have been measured.

| structure | Mtb heat-shock | Mtb growth Cornell |
|---|---|---|
| `Cc1ccoc1C(=O)N1CCOC2(CCCC2)C1` | 4.946 | -6.909 |
| `CC(C)C(=O)N1CCc2onc(C(=O)NCCN(C)C)c2C1.O=C(O)C(F)(F)F` | -7.927 | 5.285 |
| `CC/N=c1\nc(NCC)nc2n1C(O)(Nc1cccc(Cl)c1Cl)CS2` (configuration not stated) | 0.756 | -5.959 |
| `CN(C)CCNC(=O)c1ccc(OC2CCN(CC3CC3)CC2)c(Cl)c1` | 8.448 | - |
| `Cc1sc2nc(CCN)nc(N3CCN(S(C)(=O)=O)CC3)c2c1C` | 12.46 | -0.7518 |
| `COc1ccc2c(c1)CC(NCCCn1nc(C)nc1C)CC2` (configuration not stated) | -10.11 | - |
| `CN(C)C(=O)CN1CCN(C(=O)Cc2csc(-c3ncccn3)n2)CC1` | 9.353 | - |
| `COC1CCN(C(=O)Cn2nc(C)cc2C)CC1` | 10.05 | 0.9906 |
| `CC(C)(C)NC(=O)Cn1cc(C(N)=O)c(-c2ccccc2)n1` | -4.067 | -20.94 |
| `CC(C)[C@@H]1CN(C(=O)CN(C)Cc2ccccc2)C[C@H]1C(=O)O` | -171.7 | - |
| `Cc1nc(N)ncc1C(=O)N1CCCC(CCc2ccc(F)cc2)C1` (configuration not stated) | -19.18 | - |
| `O=C(CC1CCN(CCc2ccccc2)CC1)N1CCCOCC1` | 15.55 | -6.66 |
| `O=C(O)C(F)(F)F.[H][C@@]12CCN(CC3CCOCC3)C[C@]1([H])O[C@H](C(=O)N1CCC(C)CC1)C2` | 10.71 | 20.26 |
| `Cc1ccc2ncn(C(C)Cn3cccn3)c(=O)c2c1` (configuration not stated) | -9.249 | -53.53 |
| `Cc1n[nH]cc1CNC(=O)Nc1cccc(OCC(F)(F)F)c1` | 1.561 | 27.19 |
| `CC(Cn1cccn1)NC(=O)Nc1ccc(N(C)C)nc1` (configuration not stated) | -0.5176 | -5.183 |
| `COc1ccc2c(c1)CCCN(C(=O)NCC1CCCO1)C2` (configuration not stated) | 9.63 | 16.69 |
| `CC(=O)N1CCN(Cc2cccc3c2sc2ccccc23)CC(O)C1` (configuration not stated) | -13.12 | 32.07 |
| `COC(=O)c1ccc(OC)c(Cn2cc(Br)cn2)c1` | -14.52 | 11.69 |
| `Cc1ncnc2c1CCN(C(=O)N(C)C)CC2` | 24.57 | -12.92 |
| `Cn1cc(-c2csc(N3CCN(c4nccs4)CC3)n2)cn1` | 0.05564 | 16.82 |
| `O=C(O)C(F)(F)F.O=C(O)C(F)(F)F.[H][C@@]12CCN(c3ncccn3)[C@@]1([H])CCN2CC(=O)N(C)C` | -22.81 | -35.68 |
| `CNC(=O)c1ccc(CNC(=O)c2ccc(Cl)cc2F)cc1` | 26.76 | -28.79 |
| `Cc1n[nH]cc1CNC1(Cc2ccc(Br)cc2)CCCCC1` | 10.54 | - |
| `CN(Cc1nnnn1C1CC1)CC1COc2ccccc2O1` (configuration not stated) | -11.06 | - |
| `CC(C)(C)c1ncc(CNc2ccn(CCc3ccncc3)n2)s1` | 13.73 | -8.114 |
| `O=C(NCCn1ccnc1)N1CCCN(Cc2cccs2)CC1` | -12.57 | - |
| `Cc1occc1C(=O)N1Cc2nccn2CC(CN2CCOCC2)C1.O=C(O)C(F)(F)F` (configuration not stated) | -2.793 | 31.15 |
| `CN(C)c1nc(NCc2cccnc2N)ncc1F` | -15.23 | 24.68 |
| `COCC(=O)N[C@H]1C[C@@H](Cc2cc(CN3CCOCC3)on2)C1(C)C` | -5.353 | -20.81 |
| `O=C(O)C(F)(F)F.[H][C@@]12C[C@@H](C)O[C@]1([H])CN(Cc1nccs1)C2` | 6.757 | 12.3 |
| `O=C(O)C(=O)O.c1csc(CN2CC(c3nc(-c4cnccn4)no3)C2)c1` | 0.2221 | 21.89 |
| `CC(C)NC(=O)c1csc(NC2CC2)n1` | 28.59 | 29.51 |
| `COC(=O)CC(c1cnn(C)c1)c1oc(C)cc(=O)c1O` (configuration not stated) | -10.95 | 8.94 |
| `COc1ccc(Cn2cc(C(C)O)nn2)cc1` (configuration not stated) | -10.42 | -2.518 |
| `CCCSc1ncccc1C(=O)NCc1ccc(S(N)(=O)=O)cc1` | 26.74 | 2.466 |
| `COc1cccc(C(C)N2CCN(S(=O)(=O)CCCF)CC2)c1` (configuration not stated) | -22.73 | -46 |
| `[H][C@@]12CN(c3ncccc3Cl)C[C@]1(C(=O)O)CN(CC1CC1)C2=O` | 8.364 | -3.861 |
| `Cc1nc(C)n(CC2CCCN(Cc3nnc(C4CC4)o3)C2)n1` (configuration not stated) | -12.68 | 5.596 |
| `COc1cc(OC)cc(N2CCC(NC(=O)c3cccn3C)CC2)c1` | -10.05 | 29.59 |
| `COC(=O)CSCc1noc(-c2ccc(C)cc2)n1` | -184.4 | - |
| `CN(Cc1ccc(CCC(C)(C)O)cc1)Cc1cccc(O)c1` | -0.4027 | -3.324 |
| `CCN(Cc1nccn1C)C(=O)c1ccc(NCCc2c[nH]cn2)nc1` | -6.699 | 1.471 |
| `O=C(O)C(F)(F)F.[H][C@@]12COC[C@]1(CNC(=O)N(C)C)CN(Cc1cc(C)on1)C2` | -8.797 | -3.085 |
| `COCCN(Cc1ccco1)Cc1nc(-c2ccc(C)c(F)c2)no1` | -31.71 | 46.54 |
| `COc1cc(C(=O)N(Cc2ccc(F)cc2)C2CC2)cc2c1OCCO2` | 6.601 | 2.883 |
| `Cc1nn(C)c2cnn(CC(=O)NCc3ccccc3F)c12` | 6.623 | - |
| `O=C(O)C(F)(F)F.O=C(O)C(F)(F)F.[H][C@@]12CN(Cc3csc(C)n3)CCO[C@]1([H])CN(c1ccc(C)nn1)C2` | -29.27 | 9.826 |
| `COc1cccc(C2CCCN2C(=O)CC2=CSC3=NCCCN23)c1` (configuration not stated) | -24.44 | 19.88 |
| `CN(C)CCn1ccnc1C1CCN(C(=O)CCC(F)(F)F)CC1` | -4.542 | 4.598 |
| `O=C(c1cc(=O)[nH]c(=O)[nH]1)N1CCCCC1c1nc2cc(F)ccc2[nH]1` (configuration not stated) | 0.08173 | 18.68 |
| `O=C(C1=CC2(CCNCC2)c2ccccc21)N1CCCC1` | 4.185 | 12.25 |
| `CCN(C)CC1CCN(S(=O)(=O)c2cc(C)c(F)cc2Cl)C1` (configuration not stated) | -12.01 | 12.3 |
| `CCOC(=O)CNC(=O)N1CCOC(Cc2ccc(OC)cc2)C1` (configuration not stated) | -7.413 | 17.52 |
| `[H][C@@]12CCN(Cc3ccc(C)o3)C[C@@]1([H])O[C@H](c1nc(C3CC3)cs1)C2` | -18.26 | 40.45 |
| `CCc1c(C(=O)N2CC(C)OC(C)(C)C2)cnn1-c1ccccn1` (configuration not stated) | 5.775 | - |
| `Cc1ncccc1CNCC1COC2(CCCCC2)O1` (configuration not stated) | -11.95 | 2.216 |
| `Cc1cnc(CN2CCOC(Cn3nc(C)nc3C)C2)cn1` (configuration not stated) | 3.697 | 8.603 |
| `CCc1noc(CN(CC)Cc2cc3ccc(F)cc3[nH]c2=O)n1` | 11.89 | -28.48 |
| `Cc1cc(N2CCCC(O)(CN(C)C)C2)c2cc3c(cc2n1)OCO3` (configuration not stated) | 1.194 | 16.86 |
| `Cc1noc(C)c1CNCC1CNc2ccnn2C1` (configuration not stated) | 2.687 | 2.926 |

For reference, 7 entries once more:

{"structure": "COc1cccc(C2CCCN2C(=O)CC2=CSC3=NCCCN23)c1", "stereo": "configuration not stated", "Mtb heat-shock": -24.44, "Mtb growth Cornell": 19.88}
{"structure": "COC(=O)CC(c1cnn(C)c1)c1oc(C)cc(=O)c1O", "stereo": "configuration not stated", "Mtb heat-shock": -10.95, "Mtb growth Cornell": 8.94}
{"structure": "CC(C)(C)c1ncc(CNc2ccn(CCc3ccncc3)n2)s1", "Mtb heat-shock": 13.73, "Mtb growth Cornell": -8.114}
{"structure": "CCOC(=O)CNC(=O)N1CCOC(Cc2ccc(OC)cc2)C1", "stereo": "configuration not stated", "Mtb heat-shock": -7.413, "Mtb growth Cornell": 17.52}
{"structure": "Cc1ccoc1C(=O)N1CCOC2(CCCC2)C1", "Mtb heat-shock": 4.946, "Mtb growth Cornell": -6.909}
{"structure": "Cc1sc2nc(CCN)nc(N3CCN(S(C)(=O)=O)CC3)c2c1C", "Mtb heat-shock": 12.46, "Mtb growth Cornell": -0.7518}
{"structure": "CN(C)C(=O)CN1CCN(C(=O)Cc2csc(-c3ncccn3)n2)CC1", "Mtb heat-shock": 9.353}